# Data reported in the supplement of paper PMC8728848.
# The list shows a part of the results.
# What was measured:
# Assay in all cases: glycan array binding signal (z-score within array); higher = stronger binding
# Details in all cases: glycan notation: IUPAC condensed, linker removed
# [1] = target: Fuc(a1-2)[GalNAc(b1-3)]Gal
# In short: (§1)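 Arrays were curated from the Consortium for Functional Glycomics database, 3228 in total, and kept only where the protein sequence was available. Binding is expressed as a within-array Z-score. This score was averaged across arrays of the same protein sequence at different concentrations or buffers and across linkers, and negative values can be read as non-binding.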
# [2] = target: Fuc(a1-3)GlcNAc
# In short: as §1
# [3] = target: Fuc(a1-3)[Gal(b1-4)]Glc6S
# In short: as §1
# [4] = target: Fuc(a1-3)[Gal(b1-4)]GlcNAc
# In short: as §1
# [5] = target: Fuc(a1-3)[Gal(b1-4)]GlcNAc(b1-2)Man
# In short: as §1
# [6] = target: Fuc(a1-3)[Gal(b1-4)]GlcNAc(b1-2)Man(a1-3)[Fuc(a1-3)[Gal(b1-4)]GlcNAc(b1-2)Man(a1-6)]Man(b1-4)GlcNAc(b1-4)GlcNAc
# In short: as §1
# [7] = target: Fuc(a1-3)[Gal(b1-4)]GlcNAc(b1-2)Man(a1-3)[Fuc(a1-3)[Gal(b1-4)]GlcNAc(b1-2)Man(a1-6)]Man(b1-4)GlcNAc(b1-4)[Fuc(a1-6)]GlcNAc
# In short: as §1
# [8] = target: Fuc(a1-3)[Gal(b1-4)]GlcNAc(b1-3)Gal(b1-3)[Fuc(a1-4)]GlcNAc
# In short: as §1
# [9] = target: Fuc(a1-3)[Gal(b1-4)]GlcNAc(b1-3)Gal(b1-4)[Fuc(a1-3)]GlcNAc
# In short: as §1
# [10] = target: Fuc(a1-3)[Gal(b1-4)]GlcNAc(b1-3)Gal(b1-4)[Fuc(a1-3)]GlcNAc(b1-3)Gal(b1-4)[Fuc(a1-3)]GlcNAc
# In short: as §1
# [11] = target: Fuc(a1-3)[Gal(b1-4)]GlcNAc(b1-3)GalNAc
# In short: as §1
# [12] = target: Fuc(a1-3)[Gal(b1-4)]GlcNAc(b1-6)GalNAc
# In short: as §1
# [13] = target: Fuc(a1-3)[Gal(b1-4)]GlcNAc(b1-6)[Gal(b1-3)GlcNAc(b1-3)]Gal(b1-4)Glc
# In short: as §1
# [14] = target: Fuc(a1-3)[Gal(b1-4)]GlcNAc6S
# In short: as §1
# [15] = target: Fuc(a1-3)[Gal3S(b1-4)]Glc
# In short: as §1
# [16] = target: Fuc(a1-3)[Gal3S(b1-4)]GlcNAc
# In short: as §1
# [17] = target: Fuc(a1-3)[Gal3S(b1-4)]GlcNAc6S
# In short: as §1
# [18] = target: Fuc(a1-3)[GalNAc(b1-4)]GlcNAc
# In short: as §1
# [19] = target: Fuc(a1-3)[GalNAc(b1-4)]GlcNAc6S
# In short: as §1
# [20] = target: Fuc(a1-4)GlcNAc
# In short: as §1
# [21] = target: Fuc(b1-3)GlcNAc
# In short: as §1
# [22] = target: Gal(a1-2)Gal
# In short: as §1
# [23] = target: Gal(a1-3)Gal
# In short: as §1
# [24] = target: Gal(a1-3)Gal(b1-3)GlcNAc
# In short: as §1
# [25] = target: Gal(a1-3)Gal(b1-3)GlcNAc(b1-2)Man
# In short: as §1
# [26] = target: Gal(a1-3)Gal(b1-3)GlcNAc(b1-2)Man(a1-3)[Gal(a1-3)Gal(b1-3)GlcNAc(b1-2)Man(a1-6)]Man(b1-4)GlcNAc(b1-4)GlcNAc
# In short: as §1
# [27] = target: Gal(a1-3)Gal(b1-3)GlcNAc(b1-3)GalNAc
# In short: as §1
# [28] = target: Gal(a1-3)Gal(b1-3)GlcNAc(b1-6)GalNAc
# In short: as §1
# [29] = target: Gal(a1-3)Gal(b1-3)[Fuc(a1-4)]GlcNAc(b1-2)Man(a1-3)[Gal(a1-3)Gal(b1-3)[Fuc(a1-4)]GlcNAc(b1-2)Man(a1-6)]Man(b1-4)GlcNAc(b1-4)GlcNAc
# In short: as §1
# [30] = target: Gal(a1-3)Gal(b1-4)Glc
# In short: as §1
# [31] = target: Gal(a1-3)Gal(b1-4)GlcNAc
# In short: as §1
# [32] = target: Gal(a1-3)Gal(b1-4)GlcNAc(b1-2)Man
# In short: as §1
# [33] = target: Gal(a1-3)Gal(b1-4)GlcNAc(b1-2)Man(a1-3)[Gal(a1-3)Gal(b1-4)GlcNAc(b1-2)Man(a1-6)]Man(b1-4)GlcNAc(b1-4)GlcNAc
# In short: as §1
# [34] = target: Gal(a1-3)Gal(b1-4)GlcNAc(b1-3)GalNAc
# In short: as §1
# [35] = target: Gal(a1-3)Gal(b1-4)GlcNAc(b1-6)GalNAc
# In short: as §1
# [36] = target: Gal(a1-3)Gal(b1-4)[Fuc(a1-3)]GlcNAc
# In short: as §1
# [37] = target: Gal(a1-3)Gal(b1-4)[Fuc(a1-3)]GlcNAc(b1-2)Man(a1-3)[Gal(a1-3)Gal(b1-4)[Fuc(a1-3)]GlcNAc(b1-2)Man(a1-6)]Man(b1-4)GlcNAc(b1-4)GlcNAc
# In short: as §1
binder,measurement,setting,value
SP15308C-bot-338-23-338 (Bacteroides ovatus) (protein) DEWTDEQFKQLISFKTQPGGWGVTDVHVRYANSAKYTYNLPVLVSGSTDNTDDRLVSFSLRDDTLDILNFEKFGNRPELYFRELPQKYYSFPKELTIPAGQSHALLPIEFSLDGLDDSQKWALPLKVCEDANGTYAVNPRKYYRTAVLRPILFNEFSGRFSGSSLLGTMAGESDIKFSSTEIKLNVVTDSIVFFYAGQRTEDYEDRINYKVFLQFTGDKVDSKKDLYKMKIWAENEKLKFNSYSTPTYKVSSEMDATKTYLKHTYIVISDIDFDFVDYTSVPNYEIEYNMKGGLSVSRDLDTRKPDEDQGSDSKWW,glycan array binding signal (z-score),[1],-0.647
same,glycan array binding signal (z-score),[2],-0.719
same,glycan array binding signal (z-score),[3],-0.262
same,glycan array binding signal (z-score),[4],-0.26
same,glycan array binding signal (z-score),[5],-0.422
same,glycan array binding signal (z-score),[6],-0.728
same,glycan array binding signal (z-score),[7],2.11
same,glycan array binding signal (z-score),[8],0.329
same,glycan array binding signal (z-score),[9],-0.234
same,glycan array binding signal (z-score),[10],-0.366
same,glycan array binding signal (z-score),[11],-0.206
same,glycan array binding signal (z-score),[12],0.876
same,glycan array binding signal (z-score),[13],-0.143
same,glycan array binding signal (z-score),[14],-0.613
same,glycan array binding signal (z-score),[15],-0.572
same,glycan array binding signal (z-score),[16],0.145
same,glycan array binding signal (z-score),[17],0.261
same,glycan array binding signal (z-score),[18],0.291
same,glycan array binding signal (z-score),[19],-0.31
same,glycan array binding signal (z-score),[20],2.58
same,glycan array binding signal (z-score),[21],-0.386
same,glycan array binding signal (z-score),[22],-0.439
same,glycan array binding signal (z-score),[23],-0.425
same,glycan array binding signal (z-score),[24],-0.328
same,glycan array binding signal (z-score),[25],-0.735
same,glycan array binding signal (z-score),[26],0.799
same,glycan array binding signal (z-score),[27],-0.385
same,glycan array binding signal (z-score),[28],-0.133
same,glycan array binding signal (z-score),[29],1.4
same,glycan array binding signal (z-score),[30],-0.449
same,glycan array binding signal (z-score),[31],-0.307
same,glycan array binding signal (z-score),[32],-0.133
same,glycan array binding signal (z-score),[33],1.04
same,glycan array binding signal (z-score),[34],-0.787
same,glycan array binding signal (z-score),[35],-0.105
same,glycan array binding signal (z-score),[36],-0.613
same,glycan array binding signal (z-score),[37],1.61

# Reformatted: entries from further up
binder	measurement	setting	value
SP15308C-bot-338-23-338 (Bacteroides ovatus) (protein) DEWTDEQFKQLISFKTQPGGWGVTDVHVRYANSAKYTYNLPVLVSGSTDNTDDRLVSFSLRDDTLDILNFEKFGNRPELYFRELPQKYYSFPKELTIPAGQSHALLPIEFSLDGLDDSQKWALPLKVCEDANGTYAVNPRKYYRTAVLRPILFNEFSGRFSGSSLLGTMAGESDIKFSSTEIKLNVVTDSIVFFYAGQRTEDYEDRINYKVFLQFTGDKVDSKKDLYKMKIWAENEKLKFNSYSTPTYKVSSEMDATKTYLKHTYIVISDIDFDFVDYTSVPNYEIEYNMKGGLSVSRDLDTRKPDEDQGSDSKWW	glycan array binding signal (z-score)	[21]	-0.386
same	glycan array binding signal (z-score)	[22]	-0.439
